Several values for one entry are separate records, joined by “and”; a condition that tells them apart may be missing. Equal entries are not always repeated. Some of the results follow. These are further read-outs of the screen, such as a control signal, another cell line or another target. No call is given for them. Most of these compounds were active or inconclusive in the main read-out, so they are no random draw. The note in brackets gives the kind of curve behind each potency; many fits are weak.
Assay: qHTS Assay for Modulators of Lamin A Splicing
Settings: HeLa LMNA splicing GFP/RFP minigene ratio, 48 h
Outline: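 Read-out is the ratio of GFP to DsRed2 object intensity, acquired by 488 nm laser-scanning cytometry on HeLa lamin A-EGFP minigene reporter cells. Compound incubation 48 hrs at 37 °C in Opti-MEM with 2% FBS; DMSO 0.5% final.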

[1] = measured here: GFP splicing reporter channel
[2] = measured here: RFP viability control channel

SMILES: CNC(=O)Oc1cccc(-c2cn3cc(Cl)ccc3n2)c1
- AC50 [1]: 35.5 µM [rising, single point]
- AC50 [2]: 35.5 µM [rising, single point]

SMILES: Cc1ccc(/C=C/C2=NN(Cc3ccc(Cl)c(Cl)c3)C(=O)CC2)cc1
- AC50 [2]: 35.5 µM [rising, single point]

SMILES: Cc1ccc(S(=O)(=O)N(C)CCCC(=O)N2CCN(c3ccccn3)CC2)cc1
- AC50 [1]: 14.1 µM [rising, single point]

SMILES: CC(C)c1ccc(O)c(CN2CCN(c3ccccc3)CC2)c1
- AC50 [1]: 11.2 µM [falling, partial curve, poor fit]

SMILES: CC[C@@]1(O)C(=O)OCc2c1cc1n(c2=O)Cc2cc3ccccc3nc2-1
- AC50 [1]: 70.8 nM [falling, full curve] and 1.41 µM [falling, full curve]
- AC50 [2]: 0.0251 µM [rising, full curve, poor fit]

SMILES: O=C1NC(=O)C(=Cc2ccc(-c3cc(Cl)ccc3[N+](=O)[O-])o2)C(=O)N1
- AC50 [2]: 14.1 µM [rising, single point]

SMILES: CC(C)CCn1c(N)c(C(=O)NCc2cccs2)c2nc3ccccc3nc21
- AC50 [1]: 22.4 µM [falling, single point]
- AC50 [2]: 28.2 µM [falling, partial curve]

SMILES: CCOc1ccc(-c2nc(CSCC(=O)NCCc3ccc(OCC)c(OCC)c3)c(C)o2)cc1
- AC50 [1]: 14.1 µM [falling, single point]
- AC50 [2]: 11.2 µM [falling, partial curve]

SMILES: Clc1ccc(CSC(Cn2ccnc2)c2ccc(Cl)cc2Cl)cc1 (stereo not given)
- AC50 [1]: 14.1 µM [falling, single point]
- AC50 [2]: 28.2 µM [rising, single point]

SMILES: CCN(CC)C(=O)Oc1ccc2cc(Br)ccc2c1
- AC50 [1]: 31.6 µM [rising, single point]
- AC50 [2]: 31.6 µM [rising, single point]

SMILES: CCOC(=O)c1c(C)n(Cc2ccccc2)c2ccc(OCC(O)Cn3nc(C)cc3C)cc12 (stereo not given)
- AC50 [2]: 25.1 µM [rising, single point]

SMILES: CN(C)C(=S)SC(=S)N(C)C
- AC50 [1]: 10 µM [falling, partial curve, poor fit]
- AC50 [2]: 3.98 µM [falling, full curve, poor fit]

SMILES: COc1cc(O)c(C(=O)c2ccccc2)cc1S(=O)(=O)O
- AC50 [2]: 0.0224 µM [falling, full curve, poor fit]

SMILES: COc1ccc(OCC(=O)N2CCN(Cc3nc4cc([N+](=O)[O-])ccc4n3C)CC2)cc1
- AC50 [2]: 35.5 µM [rising, partial curve]

SMILES: CCC(=NCc1ccc(F)cc1)c1c(O)n(C)c(=O)n(C)c1=O
- AC50 [1]: 5.62 µM [rising, partial curve]
- AC50 [2]: 11.2 µM [rising, partial curve]

SMILES: C[C@]12Cc3cn4c(nc3C=C1CCC1C2CC[C@@]2(C)[C@H]1CC[C@@]2(O)C#N)nc1ccccc14 (stereo not given in full)
- AC50 [1]: 0.00178 µM [falling, full curve, poor fit]
- AC50 [2]: 3.98 µM [falling, full curve, poor fit]

SMILES: NNc1ccccc1
- AC50 [1]: 0.00501 µM [falling, full curve, poor fit]
- AC50 [2]: 0.0316 µM [falling, full curve, poor fit]

SMILES: Oc1c(Br)cc(Br)cc1Br
- AC50 [1]: 1.41 µM [falling, partial curve, poor fit]
- AC50 [2]: 5.62 µM [rising, single point]

SMILES: CCC(=O)O[C@@](Cc1ccccc1)(c1ccccc1)[C@@H](C)CN(C)C
- AC50 [1]: 0.355 µM [falling, full curve, poor fit]
- AC50 [2]: 8.91 µM [falling, single point]

SMILES: C[C@@]12CC(=O)[C@H]3[C@@H](CCC4=CC(=O)CC[C@]43C)[C@H]1CCC2=O
- AC50 [1]: 0.316 µM [falling, full curve, poor fit]
- AC50 [2]: 0.398 µM [falling, full curve]

SMILES: O=C(Nc1nc2c(Cl)cccc2s1)c1ccc(S(=O)(=O)N2CCc3ccccc32)cc1
- AC50 [2]: 12.6 µM [rising, single point]

SMILES: C[N+](C)(C)CCCCCCCCCC[N+](C)(C)C
- AC50 [1]: 8.91 nM [falling, full curve, poor fit] and 141 nM [falling, full curve, poor fit]
- AC50 [2]: 7.94 µM [falling, single point]

SMILES: C=C(C)c1cc2cc(C(C)=O)c(O)cc2o1
- AC50 [2]: 14.1 µM [rising, single point]

SMILES: COC(=O)c1ccc(NC(=O)c2cccn(Cc3ccccc3C)c2=O)cc1
- AC50 [1]: 0.141 µM [falling, full curve, poor fit]
- AC50 [2]: 35.5 µM [falling, partial curve, poor fit]

SMILES: CCCOP(=O)(OCCC)c1nc(-c2ccccc2)oc1NCc1ccccc1
- AC50 [1]: 17.8 µM [rising, single point]
- AC50 [2]: 25.1 µM [rising, single point]

SMILES: C[C@H](O)[C@H]1CC[C@H]2[C@@H]3CCC4=CC(=O)CC[C@]4(C)[C@H]3CC[C@]12C
- AC50 [1]: 25.1 µM [rising, partial curve, poor fit]
- AC50 [2]: 1.26 µM [falling, partial curve, poor fit]

SMILES: O=C1NCN(c2ccccc2)C12CCN(CC1COc3ccccc3O1)CC2 (stereo not given)
- AC50 [2]: 35.5 µM [falling, single point]

SMILES: Cc1sc2c(c1C)C(c1cccs1)=NCC(=O)N2CC(=O)NCc1cccs1
- AC50 [2]: 12.6 µM [rising, single point]

SMILES: Cc1nn(Cc2ccccc2Cl)c(C)c1C(=O)OCC(=O)NC1CCS(=O)(=O)C1 (stereo not given)
- AC50 [2]: 5.01 µM [rising, single point]

SMILES: CCN(CC)S(=O)(=O)c1cc(NC(=O)C(C)N2CC=C(c3ccccc3)CC2)ccc1C (stereo not given)
- AC50 [1]: 10 µM [rising, partial curve, poor fit]
- AC50 [2]: 12.6 µM [rising, partial curve]

SMILES: O=C1CN=C(c2ccccc2F)c2cc(Cl)ccc2N1
- AC50 [1]: 35.5 µM [falling, single point]
- AC50 [2]: 35.5 µM [falling, single point]

SMILES: Clc1ccc(CO/N=C(\Cn2ccnc2)c2ccc(Cl)cc2Cl)c(Cl)c1
- AC50 [1]: 12.6 µM [rising, partial curve, poor fit]
- AC50 [2]: 12.6 µM [rising, partial curve, poor fit]

SMILES: S=c1[nH]c2cc(Br)cnc2[nH]1
- AC50 [2]: 0.224 µM [rising, full curve]

SMILES: C=CCn1c(O)c(/C=C2\C=Nc3ccccc32)c(=O)[nH]c1=O
- AC50 [2]: 12.6 µM [falling, partial curve, poor fit]

SMILES: CC(CCc1ccccc1)NC(C)C(O)c1ccc(O)cc1 (stereo not given)
- AC50 [2]: 31.6 µM [falling, single point]

SMILES: Oc1cc2c(cc1CN1CCN(c3ccccc3)CC1)CCC2
- AC50 [1]: 20 µM [rising, single point]
- AC50 [2]: 35.5 µM [rising, single point]

SMILES: Cc1cccc(C)c1Oc1nc(-c2ccccc2)ncc1S(=O)(=O)c1ccccc1
- AC50 [2]: 14.1 µM [rising, partial curve]

SMILES: CC[C@@H]1CN2CCc3cc(OC)c(OC)cc3[C@H]2C[C@@H]1C[C@@H]1NCCc2cc(O)c(OC)cc21
- AC50 [1]: 0.0447 µM [falling, full curve]
- AC50 [2]: 0.0398 µM [falling, full curve]

SMILES: C[N+]1([O-])[C@@H]2CC(OC(=O)[C@@H](CO)c3ccccc3)C[C@@H]1[C@H]1O[C@H]12 (stereo not given in full)
- AC50 [1]: 0.000398 µM [falling, full curve, poor fit]
- AC50 [2]: 0.000398 µM [falling, full curve, poor fit]

SMILES: Cc1c(C(=O)c2cccc3ccccc23)c2cccc3c2n1[C@H](CN1CCOCC1)CO3
- AC50 [1]: 11.2 µM [falling, partial curve]
- AC50 [2]: 11.2 µM [falling, partial curve]

SMILES: COP(=S)(OC)Oc1ccc([N+](=O)[O-])cc1
- AC50 [1]: 2.82 µM [falling, full curve]
- AC50 [2]: 3.55 µM [falling, full curve]

SMILES: O=C(CN1CCCC1)Nc1ccc(Cl)cc1C(=O)c1ccccc1
- AC50 [1]: 0.282 µM [falling, full curve, poor fit]
- AC50 [2]: 0.141 µM [falling, full curve]

SMILES: CCOP(=O)(OCC)C(Nc1cccc(C)c1)c1ccc(F)cc1 (stereo not given)
- AC50 [1]: 0.355 µM [falling, partial curve, poor fit]
- AC50 [2]: 0.316 µM [falling, partial curve]

SMILES: NC(=NCCC[C@H](N)C(=O)O)N[N+](=O)[O-]
- AC50 [1]: 0.000891 µM [falling, full curve, poor fit]
- AC50 [2]: 0.000891 µM [falling, full curve, poor fit]

SMILES: CCCCC
- AC50 [1]: 11.2 µM [rising, single point]
- AC50 [2]: 7.94 µM [rising, partial curve, poor fit]

SMILES: O=C(CC1CCCCC1)N1CCC(c2nc(-c3ccc(S(=O)(=O)N4CCCC4)cc3)no2)CC1
- AC50 [1]: 22.4 µM [falling, single point]
- AC50 [2]: 22.4 µM [falling, single point]

SMILES: Brc1ccccc1Cn1c(-c2cncs2)nc2ccccc21
- AC50 [1]: 35.5 µM [rising, single point]
- AC50 [2]: 35.5 µM [rising, single point]

SMILES: CCCCC(=O)N/N=C/c1c(O)n(CCc2ccc(OC)c(OC)c2)c(=O)[nH]c1=O
- AC50 [1]: 0.224 µM [rising, full curve]
- AC50 [2]: 0.126 µM [rising, full curve, poor fit]
